# Test results published in PubChem BioAssay AID540256 (National Center for Advancing Translational Sciences (NCATS), 2011).
# Screen size: about 300,000 compounds; about 3,700 (1.2%) were called active. The inconclusive results got no clear call from the source; some entries with a clear call stand among them for comparison. The call rests on the fitted dose curve; tested in HEK293 cells. Potencies beside an inconclusive call are fits to weak or partial responses and may not hold up.
# Assay: qHTS for Inhibitors of binding or entry into cells for Lassa Virus; further: nearly all actives have a fitted effect of over 50% in size
# Conditions: Lassa virus pseudotype entry inhibition, cell reporter; series mostly up to 37.9 µM
# Potency means the concentration at half of the fitted maximal effect.
row,SMILES,Potency
1,CSc1ccc(S(=O)(=O)N2CCC(C(=O)NC3CC3)CC2)cc1,inactive
2,COC(=O)C1=C(C)N=C2SC(C)C(=O)N2C1c1cccc(F)c1 (stereo not drawn),"inconclusive: 20 µM [inhibitor, single point]"
3,CC1Cc2ccccc2N1C(=O)CNCCCN(C)C (stereo not drawn),inactive
4,Cc1ccc(S(=O)(=O)N(Cc2ccccc2)c2ccccc2C(=O)NCc2ccco2)cc1,"inconclusive: 2.06 µM [inhibitor, partial curve, poor fit]"
5,O=C(CC(=O)c1ccccn1)c1ccccc1,"inconclusive: 11.2 µM [inhibitor, single point]"
6,CCCCCCCC(=O)NN=C1CCN(Cc2ccccc2)CC1,"inconclusive: 2.24 µM [inhibitor, partial curve, poor fit]"
7,Cn1c(N)c(C(=O)COC(=O)C2CCC(C(C)(C)C)CC2)c(=O)n(C)c1=O (stereo not drawn),"inconclusive: 35.5 µM [inhibitor, single point]"
8,CC(=O)Nc1ccc(S(=O)(=O)Oc2ccccc2N2CCCCC2)cc1,"inconclusive: 35.5 µM [inhibitor, single point]"
9,CS(=O)(=O)c1cccc(C(=O)N(CCc2ccccc2)Cc2cccs2)c1,"inconclusive: 8.91 µM [inhibitor, partial curve, poor fit]"
10,COc1ccc(CCn2c(SCC(=O)Nc3cc(C)on3)nc3ccccc3c2=O)cc1OC,inactive
11,Cc1ccc(C(=O)OCC(=O)c2ccccc2)cc1,"inconclusive: 7.08 µM [inhibitor, partial curve, poor fit]"
12,O=S(=O)(NCc1ccccc1)c1cccc2nsnc12,inactive
13,Oc1ccc(C=NNc2ccccn2)c(O)c1,"inconclusive: 7.08 µM [inhibitor, full curve, poor fit]"
14,Fc1ccc(-c2c(-c3ccncc3)nc3n2CCS3)cc1,"inconclusive: 1.41 µM [activator, full curve]"
15,CCCC(=O)NC1=C(Cl)C(=O)c2ccccc2C1=O,"inconclusive: 12.6 µM [inhibitor, partial curve, poor fit]"
16,O=C(/C=C/c1ccc(Cl)cc1)N(c1ccccn1)C1CCCCC1,"inconclusive: 11.2 µM [inhibitor, partial curve]"
17,Cc1ccc(C(=O)/C=C/c2ccc(F)cc2)o1,"inconclusive: 35.5 µM [inhibitor, single point]"
18,Cc1cccc(C(=O)Nc2cccc(NC(=O)c3ccccc3)c2)c1,inactive
19,C=C1CC2C(CCC3(C)C2CCC3(O)C(C)=O)C2(C)CCC(=O)C=C12 (stereo not drawn),active: 5.62 µM
20,Cc1ccc(OCC(=O)NNC(=O)C2CC(=O)N(c3ccc4c(c3)OCCO4)C2)cc1 (stereo not drawn),"inconclusive: 0.398 µM [inhibitor, partial curve, poor fit]"
21,C/C(=N\NC(=O)c1ccco1)c1ccc(NC(=O)c2ccccc2)cc1,"inconclusive: 35.5 µM [inhibitor, single point]"
22,COc1cccc(CNc2cnc3ccccc3c2)c1O,inactive
23,CCNS(=O)(=O)c1ccc(NC(=O)CSc2nc(-c3ccco3)cc(C(F)(F)F)n2)cc1,"inconclusive: 0.316 µM [inhibitor, full curve, poor fit]"

row,SMILES,Potency
1,Cc1cccc(NC(=S)c2nc3ccccc3s2)c1,"inconclusive: 35.5 µM [inhibitor, single point]"
2,CN(C)S(=O)(=O)c1ccc(C(=O)Nc2nnc(SCc3cccc4ccccc34)s2)cc1,inactive
3,CCOc1ccc2[nH]c(=O)c(CN(CCCN3CCOCC3)Cc3nnnn3Cc3ccc(OC)cc3)cc2c1,"inconclusive: 11.2 µM [inhibitor, partial curve, poor fit]"
4,Cc1ccc(Nc2ncccc2C(N)=O)cc1,"inconclusive: 2.31 µM [activator, partial curve, poor fit]"
5,CN(c1ccccc1)S(=O)(=O)c1cccc(C(=O)Nc2ccc3c(c2)CCC3)c1,active: 16.4 µM
6,CCC(C)(C)NC(=O)/C=C/c1cnc2ccccc2n1,"inconclusive: 20.6 µM [activator, partial curve, poor fit]"
7,CCOc1ccc(C(=O)N(c2ccccn2)C2CCCCC2)cc1,"inconclusive: 35.5 µM [inhibitor, single point]"
8,Cc1c(Cl)cccc1NC(=S)N1CCC(N(C)CC2CCCO2)CC1 (stereo not drawn),inactive
9,CCN(C(=O)CSc1cc(C)c2cccc(C)c2n1)C1CCS(=O)(=O)C1 (stereo not drawn),"inconclusive: 22.4 µM [inhibitor, single point]"
10,Cc1ccc(-c2cc(C(=O)Nc3ccc(SC(F)F)cc3)no2)cc1F,"inconclusive: 31.6 µM [inhibitor, single point]"
11,CC(C)S(=O)(=O)c1csc(C(=O)NN)c1-n1cccc1,"inconclusive: 0.631 µM [inhibitor, partial curve, poor fit]"
12,CCOc1ccc(S(=O)(=O)N(CC(=O)NCC2CCCO2)c2ccc(F)cc2)cc1 (stereo not drawn),"inconclusive: 8.91 µM [inhibitor, partial curve, poor fit]"
13,Cc1cc(C(=O)N2CCN(c3ccccc3Cl)CC2)c(C)o1,"inconclusive: 11.2 µM [inhibitor, partial curve, poor fit]"
14,Cc1cc(C(=O)CSc2nnnn2-c2ccc(Cl)cc2)c(C)n1CC1CCCO1 (stereo not drawn),"inconclusive: 0.0517 µM [inhibitor, full curve, poor fit]"
15,CCOC(=O)c1ccc(NC(=O)Nc2ccn(C)n2)cc1,inactive
16,CCOC(=O)N1CCC(N(CCN(C)C)C(=S)Nc2cccc(Cl)c2C)CC1,"inconclusive: 20 µM [inhibitor, single point]"
17,CC(NC(=O)C1CCN(S(=O)(=O)N2CCC3(CC2)OCCO3)CC1)c1ccccc1 (stereo not drawn),inactive
18,CC1CCc2nc(NC(=O)Nc3ccc4c(c3)OCO4)sc2C1 (stereo not drawn),"inconclusive: 1.12 µM [activator, single point]"
19,Cc1cc2nc(-c3ccc[nH]c3=O)n(Cc3ccccc3F)c2cc1C,inactive
20,OCC1(Cc2ccccc2C(F)(F)F)CCN(Cc2cccc3cnccc23)CC1,"inconclusive: 31.6 µM [inhibitor, partial curve, poor fit]"
21,CC(C)N1CC(O)=C(c2nc3ccccc3[nH]2)C1=N,"inconclusive: 0.0065 µM [activator, full curve, poor fit]"
22,COc1ccc(CCNC2CC(=O)N(N(C)C)C2=O)cc1OC (stereo not drawn),inactive
23,CCN(CC)c1ccc(NC(=O)c2cccn2-c2nnc(N3CCCCC3)s2)c(C)c1,"inconclusive: 14.1 µM [inhibitor, single point]"

row,SMILES,Potency
1,CCCCc1ccc(NC(=S)Nc2ccc(Cl)c(S(=O)(=O)N(C)C)c2)cc1,"inconclusive: 0.501 µM [inhibitor, single point]"
2,CCN(C(=O)c1cnc(NC(C)C)cc1C(F)(F)F)c1ccc(Cl)cc1,"inconclusive: 14.1 µM [inhibitor, partial curve, poor fit]"
3,CN(c1ccc(OCc2ccc([N+](=O)[O-])cc2)cc1)S(=O)(=O)c1ccccc1,"inconclusive: 7.08 µM [inhibitor, full curve, poor fit]"
4,CC1(c2ccc3ccccc3c2)NC(=O)N(CC(=O)N2CCN(Cc3ccc(C#N)cc3)CC2)C1=O (stereo not drawn),"inconclusive: 1.26 µM [inhibitor, full curve, poor fit]"
5,CC(C)(C)C(=O)Oc1cccc(Nc2ncnc3ccccc23)c1,inactive
6,COc1ccc(-n2nc(C(=O)NCC(=O)NC3CCCCC3)c3ccccc3c2=O)c(OC)c1,active: 12.6 µM
7,CCOC(=O)c1cnn(-c2ccccc2)c1-n1cccc1C(=O)C(=O)Nc1ccc(F)cc1,inactive
8,Cc1ccc(-c2nc(NCc3ccco3)n(S(C)(=O)=O)n2)cc1,inactive
9,CC1=C(C(=O)Nc2cc(Cl)ccc2C)C(c2cccs2)n2ncnc2N1 (stereo not drawn),"inconclusive: 25.1 µM [inhibitor, single point]"
10,COc1ccc(NC(=O)CN2C(=O)c3cccnc3Sc3ccccc32)cc1OC,inactive
11,COc1ccc(NC(=O)c2cc(C)cc(C)c2)cc1[N+](=O)[O-],"inconclusive: 2.82 µM [inhibitor, full curve, poor fit]"
12,COc1ccccc1NC(=S)NC(=O)c1ccc(Cn2cc(Br)cn2)cc1,"inconclusive: 35.5 µM [inhibitor, single point]"
13,O=C(CSCc1ccc(F)cc1)N1CCc2c([nH]c3ccccc23)C1c1ccc(Cl)cc1 (stereo not drawn),"inconclusive: 12.6 µM [inhibitor, single point]"
14,CCOc1ccc(N(CC(=O)NC2CCCCC2)C(=O)CCCC(=O)Nc2ccccn2)cc1,active: 10 µM
15,Cc1sc(NC(=O)CN(Cc2ccc(F)cc2)C(=O)C(C)C)c(C(N)=O)c1C,"inconclusive: 16.4 µM [inhibitor, partial curve, poor fit]"
16,CC(=O)c1c(C(C)=O)c(C)n(-c2nc(-c3ccc(Br)cc3)c(C)s2)c1C,active: 16.4 µM
17,O=C(NNC(=O)c1ccccc1[N+](=O)[O-])Nc1ccc(Cl)cc1,inactive
18,COc1ccc(CCC(=O)NC2CC(=O)N(c3ccc(OC)cc3)C2)cc1 (stereo not drawn),inactive
19,CCc1c(O)nc(SCC(=O)Nc2ccc(C)cc2)n(C2CCCCC2)c1=O,"inconclusive: 4.11 µM [inhibitor, full curve, poor fit]"
20,Cn1ccs/c1=N\C(=O)Nc1cccc(Cl)c1,"inconclusive: 2.06 µM [activator, partial curve]"
21,O=[N+]([O-])c1cccc(C=NN=C2c3ccccc3-c3ccccc32)c1,"inconclusive: 6.31 µM [activator, partial curve, poor fit]"
22,Cc1cccc(NC(=O)C(=O)NCCc2csc(-c3ccc(F)cc3)n2)c1C,inactive

# Single entries from the list.
# Potency with Cc1ccc(-c2nc(NCc3ccco3)n(S(C)(=O)=O)n2)cc1 reads inactive
# Potency with COc1ccc(NC(=O)c2cc(C)cc(C)c2)cc1[N+](=O)[O-] reads inconclusive: 2.82 µM [inhibitor, full curve, poor fit]
# Potency with CC(C)(C)C(=O)Oc1cccc(Nc2ncnc3ccccc23)c1 reads inactive
